# Measurements reported in publication PMC12017883.
# Chains of the proteins cited; added tags and fusions are not shown. Lines headed by an entry give the natural chain unless they say otherwise; changes in a name come on top.
# UniProt P00441: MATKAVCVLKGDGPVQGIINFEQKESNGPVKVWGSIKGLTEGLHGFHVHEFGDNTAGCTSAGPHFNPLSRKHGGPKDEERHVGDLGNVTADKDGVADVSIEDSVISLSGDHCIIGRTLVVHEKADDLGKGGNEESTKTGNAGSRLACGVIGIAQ
# These are yes or no findings as the source states them, for the method shown. Binding seen in cells or lysates may run through a third protein. A yes stands for co-enrichment or nearness to the bait. Other partners may have been found.
# Molecular target: human mtSOD1-L126delTT with a FLAG sequence at the C terminus (human) (UniProt P00441)
# Assay: affinity purification with mass spectrometry; anti-FLAG M2 IP (5 ug antibody, protein A/G magnetic beads) from the nuclear fraction of DF7 cells (500 ug total protein); control IP with monoclonal mouse IgG (MOPC 21); DIA proteomics; hits: log2 FC >= 2 over control or missing in the control IP
row,Binder,binding
1,"Hnrnpr (protein, UniProt Q8VHM5 1-632) MANQVNGNAVQLKEEEEPMDTSSVTHTEHYKTLIEAGLPQKVAERLDEIFQTGLVAYVDLDERAIDALREFNEEGALSVLQQFKESDLSHVQNKSAFLCGVMKTYRQREKQGSKVQESTKGPDEAKIKALLERTGYTLDVTTGQRKYGGPPPDSVYSGVQPGIGTEVFVGKIPRDLYEDELVPLFEKAGPIWDLRLMMDPLSGQNRGYAFITFCGKEAAQEAVKLCDSYEIRPGKHLGVCISVANNRLFVGSIPKNKTKENILEEFSKVTEGLVDVILYHQPDDKKKNRGFCFLEYEDHKSAAQARRRLMSGKVKVWGNVVTVEWADPVEEPDPEVMAKVKVLFVRNLATTVTEEILEKSFSEFGKLERVKKLKDYAFVHFEDRGAAVKAMDEMNGKEIEGEEIEIVLAKPPDKKRKERQAARQASRSTAYEDYYYHPPPRMPPPMRGRGRGGRGGYGYPPDYYGYEDYYDDYYGYDYHDYRGGYEDPYYGYDDGYAVRGRGGGRGGRGAPPPPRGRGAPPPRGRAGYSQRGAPLGPPRGSRGGRGGPAQQQRGRGSRGARGNRGGNVGGKRKADGYNQPDSKRRQTNNQQNWGSQPIAQQPLQQGGDYSGNYGYNNDNQEFYQDTYGQQWK",binds
2,"Ilf3 (protein, UniProt Q9Z1X4 1-898) MRPMRIFVNDDRHVMAKHSSVYPTQEELEAVQNMVSHTERALKAVSDWIDEQEKGNSELSEAENMDTPPDDESKEGAGEQKAEHMTRTLRGVMRVGLVAKGLLLKGDLDLELVLLCKEKPTTALLDKVADNLAIQLTTVTEDKYEILQSVDDAAIVIKNTKEPPLSLTIHLTSPVVREEMEKVLAGETLSVNDPPDVLDRQKCLAALASLRHAKWFQARANGLKSCVIVIRVLRDLCTRVPTWGPLRGWPLELLCEKSIGTANRPMGAGEALRRVLECLASGIVMPDGSGIYDPCEKEATDAIGHLDRQQREDITQSAQHALRLAAFGQLHKVLGMDPLPSKMPKKPKNENPVDYTVQIPPSTTYAITPMKRPMEEDGEEKSPSKKKKKIQKKEEKADPPQAMNALMRLNQLKPGLQYKLISQTGPVHAPIFTMSVEVDGSNFEASGPSKKTAKLHVAVKVLQDMGLPTGAEGRDSSKGEDSAEESDGKPAIVAPPPVVEAVSNPSSVFPSDATTEQGPILTKHGKNPVMELNEKRRGLKYELISETGGSHDKRFVMEVEVDGQKFQGAGSNKKVAKAYAALAALEKLFPDTPLALEANKKKRTPVPVRGGPKFAAKPHNPGFGMGGPMHNEVPPPPNIRGRGRGGNIRGRGRGRGFGGANHGGGYMNAGAGYGSYGYSSNSATAGYSQFYSNGGHSGNAGGGGSGGGGGSSSYSSYYQGDSYNSPVPPKHAGKKPLHGGQQKASYSSGYQSHQGQQQPYNQSQYSSYGTPQGKQKGYGHGQGSYSSYSNSYNSPGGGGGSDYSYDSKFNYSGSGGRSGGNSYGSSGSSSYNTGSHGGYGTGSGGSSSYQGKQGGYSSQSNYSSPGSSQSYSGPASSYQSSQGGYSRNTEHSMNYQYR",binds
3,"SCY1-like protein 2 (protein, UniProt Q8CFE4 1-930) MESMLNKLKSTVTKVTADVTSAVMGNPVTREFDVGRHIASGGNGLAWKIFNGTKKSTKQEVAVFVFDKKLIDKYQKFEKDQIIDSLKRGVQQLTRLRHPRLLTVQHPLEESRDCLAFCTEPVFASLANVLGNWENLPSSISPDIKDYKLYDVETKYGLLQVSEGLSFLHSSVKMVHGNVTPENVILNKSGAWKIMGFDFCVSSSNPSEQEPKFPCKEWDPNLPSLCLPNPEYLAPEYILSVSCETASDMYSLGAVMYAVFNQGRPIFEVNKQDIYKSFSRQLDQLSRLGSSSLTSIPEEVREHVKLLLNVTPTVRPDADQMTKIPFFDDVGAVTLQYFDTLFQRDNLQKSQFFKGLPKVLPKLPKRVIVQRILPCLTSEFVNPDMVPFVLPNVLLIAEECTKEEYIKLILPELGPVFKQQEPIQILLIFLQKMDLLLTKTPPDEIKNSVLPMVYRALEAPSIQIQELCLNIIPTFANLIDYPSMKNALIPRIKNACLQTSSLAVRVNSLVCLGKILEYLDKWFVLDDILPFLQQIPSKEPAVLMGILGIYKCTFTHKKLGITKEQLAGKVLPHLIPLSIENNLNLNQFSSFIAVIKEMLSRLESEHRTKLEQLHVMQEQQRSLDIGNQMSTSEETKVAHSGSQQIDKVFNNIGADLLSGSESENREDGMQGKQKRGSLTLEEKQKLAKEQEQAQKLKSQQPLKPQVHTPIAPIKQTKDLTDTLMENMSSLTSLSVSTPKISASSTFTPVPSTGLGMMFSTPIDNTKRNLTNGLNANMGFQTSGFSMPVNPNQNFFSGTGTAGVTTMSLGAPPTMSNFSPLTIPPASVKQPQQRPTDMSALNNLFGPQKPKVSMNQLSQQKPNQWLNQFAPPQGSPVMGSAAMGTQGNVMGQAAFGMQGNPFFNPQNFAQPPPTTMTSSSSASNDLKDLFG",binds
4,"Mtdh (protein, UniProt Q80WJ7 1-579) MAARSWQDELAQQAEEGSARLRELLSVGLGFLRTELGLDLGLEPKRYPGWVILVGTGALGLLLLFLLGYGWAAACAGARKKRRSPPRKREEAAPPTPAPDDLAQLKNLRSEEQKKKNRKKLPEKPKPNGRTVEVPEDEVVRNPRSITAKQAPETDKKNEKSKKNKKKSKSDAKAVQNSSRHDGKEVDEGAWETKISHREKRQQRKRDKVLTDSGSLDSTIPGIENIITVTTEQLTTASFPVGSKKNKGDSHLNVQVSNFKSGKGDSTLQVSSRLNENLTVNGGGWSEKSVKLSSQLSEEKWNSVPPASAGKRKTEPSAWTQDTGDTNANGKDWGRNWSDRSIFSGIGSTAEPVSQSTTSDYQWDVSRNQPYIDDEWSGLNGLSSADPSSDWNAPAEEWGNWVDEDRASLLKSQEPISNDQKVSDDDKEKGEGALPTGKSKKKKKKKKKQGEDNSHTQDTEDLEKDTREELPVNTSKARPKQEKACSLKTMSTSDPAEVLIKNSQPVKTLPPAISAEPSITLSKGDSDNSSSQVPPMLQDTDKPKSNAKQNSVPPSQTKSETNWESPKQIKKKKKARRET",binds
5,"Nono (protein, UniProt Q99K48 1-473) MQSNKAFNLEKQNHTPRKHHQHHHQQHHQQQQQQQQQQPPPPIPANGQQASSQNEGLTIDLKNFRKPGEKTFTQRSRLFVGNLPPDITEEEMRKLFEKYGKAGEVFIHKDKGFGFIRLETRTLAEIAKVELDNMPLRGKQLRVRFACHSASLTVRNLPQYVSNELLEEAFSVFGQVERAVVIVDDRGRPSGKGIVEFSGKPAARKALDRCSEGSFLLTTFPRPVTVEPMDQLDDEEGLPEKLVIKNQQFHKEREQPPRFAQPGSFEYEYAMRWKALIEMEKQQQDQVDRNIKEAREKLEMEMEAARHEHQVMLMRQDLMRRQEELRRMEELHNQEVQKRKQLELRQEEERRRREEEMRRQQEEMMRRQQEGFKGTFPDAREQEIRMGQMAMGGAMGINNRGAMPPAPVPPGTPAPPGPATMMPDGTLGLTPPTTERFGQAATMEGIGAIGGTPPAFNRPAPGAEFAPNKRRRY",binds
6,"Nop2 (protein, UniProt Q922K7 1-793) MGRKLDPTKKEKRGPGRKARKQKGAETELVRFLPAAGDENSKRLSSRARKRAAKRRAGSVDVPKPNKSPGIKTLPGELSKGAVQARGKKRPAPIQNSDGDEEEDSGEDDVVTQGDLWGSEDSDEDMVDDYGAASNSEDEEEKLLPIERAALKQKAQDATAGVLWNEEDTDEDEDDDGVSPESHPRKDDKAEGDLQINVEDEEAFVLPPAGETDQDGQAPDLQRVHKRIQDIVGVLRDFGAQREEGRSRAEYLSRLQKDLATYYSYGDFLLSKLMELFPLSELIEFLEANEVPRPITLRTNTLKTRRRDLAQLLINRGVNLDPLGKWSKSGLVVYDSSVPIGATPEYLAGHYMLQGASSMLPVMALAPQEHERILDMCCAPGGKTSYIAQLMKNTGVILANDANADRLKSVVGNLHRLGVTNTIISHYDGRQFPKVVGGFDRVLLDAPCSGTGVISKDPAVKTNKDEKDIQRCAHLQKELLLSAIDSVNAASKTGGYLVYCTCSITVEENEWVVDYALKKRNVRLVPTGLDFGQEGFTRFQARRFHPTLRSTRRFYPHTHNMDGFFIAKFKKFSNSIPQPHAGNSAAATPTEPDLKDQVTPKSENGSQPTKKARGAVKAKQQLLRQPHSKKPFQKLNGIAKGPGLSTEPSVPDAQVSTRPSQSAGNADVNSKRKRSEKLKQRGPKWKPSKEAAVPKPSAPSRVEDSGTPVPTPSEIRAAPRPKDCAPSLGKAKKKQKGKQQLAQQPANGAAPLKEDAVSKGPSAPFVSPHSSTRPPPAKRRKSMTKGNSQPLLS",binds
